Data from PMC9249397.

Sequences of proteins named here, by UniProt entry; tags and fusion partners are left off.
UniProt G3UZ78: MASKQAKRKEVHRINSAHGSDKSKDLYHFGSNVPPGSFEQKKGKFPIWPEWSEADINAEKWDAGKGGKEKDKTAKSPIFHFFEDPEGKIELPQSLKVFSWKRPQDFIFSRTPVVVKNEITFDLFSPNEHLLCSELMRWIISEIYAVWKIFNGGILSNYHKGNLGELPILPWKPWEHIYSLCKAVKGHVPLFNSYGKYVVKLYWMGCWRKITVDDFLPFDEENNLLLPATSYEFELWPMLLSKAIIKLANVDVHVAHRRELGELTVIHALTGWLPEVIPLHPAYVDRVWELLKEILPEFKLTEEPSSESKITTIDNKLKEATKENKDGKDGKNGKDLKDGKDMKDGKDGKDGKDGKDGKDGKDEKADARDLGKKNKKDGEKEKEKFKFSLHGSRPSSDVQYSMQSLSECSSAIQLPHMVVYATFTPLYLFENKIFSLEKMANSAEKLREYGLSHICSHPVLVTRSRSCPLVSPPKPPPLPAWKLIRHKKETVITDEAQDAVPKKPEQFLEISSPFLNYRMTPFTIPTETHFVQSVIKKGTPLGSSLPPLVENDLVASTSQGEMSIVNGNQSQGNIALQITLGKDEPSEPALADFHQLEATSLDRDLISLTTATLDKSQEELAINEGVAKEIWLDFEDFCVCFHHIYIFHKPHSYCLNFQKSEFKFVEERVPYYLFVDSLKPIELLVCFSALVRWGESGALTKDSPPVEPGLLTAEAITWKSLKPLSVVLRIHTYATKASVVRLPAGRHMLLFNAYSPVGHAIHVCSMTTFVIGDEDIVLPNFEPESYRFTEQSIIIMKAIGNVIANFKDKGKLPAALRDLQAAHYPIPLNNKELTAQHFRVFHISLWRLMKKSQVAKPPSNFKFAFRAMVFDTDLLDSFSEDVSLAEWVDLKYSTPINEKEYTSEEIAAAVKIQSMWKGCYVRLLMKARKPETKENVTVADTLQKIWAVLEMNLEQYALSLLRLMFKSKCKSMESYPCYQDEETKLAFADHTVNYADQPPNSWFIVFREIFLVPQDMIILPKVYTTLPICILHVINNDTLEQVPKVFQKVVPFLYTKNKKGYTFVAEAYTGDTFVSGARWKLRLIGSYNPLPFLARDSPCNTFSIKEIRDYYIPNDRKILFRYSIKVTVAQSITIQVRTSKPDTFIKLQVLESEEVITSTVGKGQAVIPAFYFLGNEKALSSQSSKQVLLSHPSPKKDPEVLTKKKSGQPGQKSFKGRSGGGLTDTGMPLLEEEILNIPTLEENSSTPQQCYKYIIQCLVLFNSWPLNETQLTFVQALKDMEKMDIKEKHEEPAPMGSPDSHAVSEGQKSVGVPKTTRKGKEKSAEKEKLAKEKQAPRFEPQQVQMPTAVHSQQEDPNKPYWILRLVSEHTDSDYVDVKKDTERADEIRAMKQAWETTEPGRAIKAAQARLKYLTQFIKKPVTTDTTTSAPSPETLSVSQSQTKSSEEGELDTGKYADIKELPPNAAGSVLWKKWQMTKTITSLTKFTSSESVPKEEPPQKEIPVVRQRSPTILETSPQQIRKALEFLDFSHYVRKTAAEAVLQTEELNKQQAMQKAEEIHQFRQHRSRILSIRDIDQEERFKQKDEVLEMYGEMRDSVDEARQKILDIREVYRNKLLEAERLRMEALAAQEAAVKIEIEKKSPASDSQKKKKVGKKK

Molecular target: androglobin (Adgb) (mouse (endogenous in testis)) (UniProt G3UZ78)
Experiment: affinity purification with mass spectrometry; total protein extracts of wild-type mouse testes (4 mg) immunoprecipitated with anti-Adgb or control rabbit IgG on protein G-sepharose, washes with 300 mM and 150 mM NaCl, LC-MS/MS

B1: septin 10 (Sept10) (protein, UniProt Q8C650 1-452)
chain: MASCDEIKEHPRSLSMCGHVGFESLPDQLVDRSIEQGFCFNILCVGETGIGKSTLINTLFNTNFEELESSHFCPCVRLRAQTYELQESNVRLKLTIVNTVGFGDQINKEDSYQPIVDYIDDQFEAYLQEEVKIKRALFNYHDSRIHVCLYFIAPTGHSLRTLDLLTMKSLDNKVNIIPLIAKADTISKSELQKFKMKLMNELVINGVQIYQFPTDDDTTSKINGAMNGHLPFAVVGSMDEIKVGNKMVKGRQYPWGIVQVENENHCDFVKLREMLICTNMEDLREQTHMRHYELYRRCKLQEMGFVDMGPENKPLSLQETYEAKRHEFYGERQRKEEQMKQMFVQRVKEKEAILKEAERELQAKFEHLKRIHQEERMKLEEKRRMLEEESVAFAKKKATCELFPNQSFLASGSSIRKDKDRKKADGASAFCDCLTAQESVRLCISSPRKDMD
With B1 the binding was “binds”.

These are yes or no findings as the source states them, for the method shown. Binding seen in cells or lysates may run through a third protein. Here binding means that the protein was enriched with, or labelled near, the bait; the list need not be complete.
